Binding data for 1 molecule are collected here from patent US20190033295A1.

Protein sequences, listed by entry. Tags and fused reporters are not part of them. Lines headed by an entry give the natural chain unless they say otherwise; changes in a name come on top.
UniProt P0DMV8: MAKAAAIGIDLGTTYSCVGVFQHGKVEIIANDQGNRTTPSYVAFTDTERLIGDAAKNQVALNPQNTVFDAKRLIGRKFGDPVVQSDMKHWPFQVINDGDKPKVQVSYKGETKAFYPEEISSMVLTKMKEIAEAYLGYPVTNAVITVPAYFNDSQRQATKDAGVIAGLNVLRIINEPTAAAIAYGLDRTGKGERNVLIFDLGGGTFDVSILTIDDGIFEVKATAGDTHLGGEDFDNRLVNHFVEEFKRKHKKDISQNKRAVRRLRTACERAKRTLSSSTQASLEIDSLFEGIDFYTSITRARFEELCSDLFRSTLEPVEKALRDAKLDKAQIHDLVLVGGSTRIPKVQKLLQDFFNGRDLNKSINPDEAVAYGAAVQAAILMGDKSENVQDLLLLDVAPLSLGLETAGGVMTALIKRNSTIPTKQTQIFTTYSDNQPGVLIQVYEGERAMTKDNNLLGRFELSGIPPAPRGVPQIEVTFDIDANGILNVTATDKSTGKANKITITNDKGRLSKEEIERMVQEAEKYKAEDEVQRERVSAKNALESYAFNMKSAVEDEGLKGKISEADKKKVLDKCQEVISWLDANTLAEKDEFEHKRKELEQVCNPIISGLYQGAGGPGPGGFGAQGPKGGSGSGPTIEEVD

These are yes or no findings as the source states them, for the method shown. Binding seen in cells or lysates may run through a third protein. Some results given as binding are weak or reduced against the parent protein; the word gives no strength. Sequences can lack the tags named with a protein.

The assay concerns the target GFP-HSP70 (human) (UniProt P0DMV8). Briefly: GST pull-down with 293T lysate overexpressing GFP-HSP70, western blot with GFP antibody. (In general: In western blotting, separated proteins are transferred to a membrane and probed.)

B1: GST-AIMP2-DX2 fragment DM1 (protein, not shown: a dimerising Fc or GST)
chain: MPMYQVKPYHGGGAPLRVELPTCMYRLPNVHGRSYGPAPGAGHVQDYGALKDIVINANPASPPLSLLVLHRLLCEHFRVLSTVHTHS
Regarding B1, the binding entry is given as “binds”.
